Experimental findings from PubChem BioAssay AID256 (DTP/NCI, 2004) are described below.

The list shows only some results of the screen, not a fair sample: its compounds were picked by chemical class. Other doses and runs of a compound may be missing. T/C is the treated group as % of the vehicle group. Where survival is the endpoint, the PubChem record calls one and a half times the control and up active, and a quarter to a half above the control has no call in these data; cut-offs in other NCI protocols can differ. Schedule codes are those of the source, read here as Q, the interval in days (D) or hours (H), X, the number of doses. Some entries show no survivor count and are marked so; the dose need not have been tolerated. Some doses were run more than once; their values stand side by side, smallest first.

The test deals with CD2F1 mice, L1210 leukemia ip, survival T/C. In words: NCI In Vivo Anticancer Drug Screen. Data for tumor model L1210 Leukemia (intraperitoneal) in CD2F1 (CDF1) mice. The settings on record: T/C endpoint: mean survival time, higher T/C = longer survival. Put shortly: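 Each value reflects a quotient of treated over vehicle control outcomes in mice with a transplanted tumor.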

Setting [1] is: dose: 6.25 mg/kg/injection, schedule: Q01DX009 (ip), vehicle: Klucel (hydroxypropylcellulose) (HPC).
Where [2] appears, read: dose: 25.0 mg/kg/injection, schedule: Q01DX009 (ip), vehicle: saline with Tween-80.
[3] abbreviates: dose: 50.0 mg/kg/injection, schedule: Q01DX009 (ip), vehicle: saline with Tween-80.
[4] abbreviates: dose: 100.0 mg/kg/injection, schedule: Q04DX003 (ip), vehicle: saline with Tween-80.
Setting [5] is: dose: 62.5 mg/kg/injection, schedule: Q01DX001 (ip), vehicle: distilled water + Tween-80.
Setting [6] is: dose: 125.0 mg/kg/injection, schedule: Q01DX001 (ip), vehicle: distilled water + Tween-80.

On to `N#Cc1ccc(N(CCCl)CCCl)cc1`, for which the T/C is 101 % of control [survivor count not shown] under setting [1]; 103 % of control [survivor count not shown] (dose: 12.5 mg/kg/injection, schedule: Q01DX009 (ip), vehicle: Klucel (hydroxypropylcellulose) (HPC)); 100 [survivor count not shown] and 106 % of control [survivor count not shown] (dose: 25.0 mg/kg/injection, schedule: Q01DX009 (ip), vehicle: Klucel (hydroxypropylcellulose) (HPC)); 92 [survivor count not shown] and 97 % of control [survivor count not shown] (dose: 50.0 mg/kg/injection, schedule: Q01DX009 (ip), vehicle: Klucel (hydroxypropylcellulose) (HPC)); 94 [survivor count not shown] and 95 % of control [survivor count not shown] (dose: 100.0 mg/kg/injection, schedule: Q01DX009 (ip), vehicle: Klucel (hydroxypropylcellulose) (HPC)); 90 [survivor count not shown] and 94 % of control [survivor count not shown] (dose: 200.0 mg/kg/injection, schedule: Q01DX009 (ip), vehicle: Klucel (hydroxypropylcellulose) (HPC)). Further, the T/C (dose: 400.0 mg/kg/injection, schedule: Q01DX009 (ip), vehicle: Klucel (hydroxypropylcellulose) (HPC)) is 91 % of control [survivor count not shown].
As to `O=c1oc(CCN(CCCl)CCCl)nc2ccccc12`, the T/C (dose: 100.0 mg/kg/injection, schedule: Q01DX001 (ip), vehicle: Klucel (hydroxypropylcellulose) (HPC)) is 108 [survivor count not shown] and 110 % of control [survivor count not shown]; the T/C (dose: 200.0 mg/kg/injection, schedule: Q01DX001 (ip), vehicle: Klucel (hydroxypropylcellulose) (HPC)) is 134 [survivor count not shown] and 143 % of control [survivor count not shown]; the T/C (dose: 400.0 mg/kg/injection, schedule: Q01DX001 (ip), vehicle: Klucel (hydroxypropylcellulose) (HPC)) is 116 % of control [survivor count not shown].
Consider `CC(C)NP(=S)(Cl)Cl`, for which the T/C is 106 % of control [survivor count not shown] (dose: 12.5 mg/kg/injection, schedule: Q01DX009 (ip), vehicle: saline with Tween-80); 97 % of control [survivor count not shown] (dose: 12.5 mg/kg/injection, schedule: Q04DX003 (ip), vehicle: saline); 98 % of control [survivor count not shown] under setting [2]; 101 % of control [survivor count not shown] (dose: 25.0 mg/kg/injection, schedule: Q04DX003 (ip), vehicle: saline); 98 % of control [survivor count not shown] under setting [3]; 97 % of control [survivor count not shown] (dose: 50.0 mg/kg/injection, schedule: Q04DX003 (ip), vehicle: saline).
`S=P(Cl)(Cl)Cl`: the T/C reads like this: under setting [2], 95 % of control [survivor count not shown]; under setting [3], 98 % of control [survivor count not shown]; under setting [4], 102 % of control [survivor count not shown].
As for `CC/C(C)=N/N(CCCl)CCCl`, the T/C is 108 % of control [survivor count not shown] (dose: 12.5 mg/kg/injection, schedule: Q01DX009 (ip), vehicle: saline); 115 % of control [survivor count not shown] (dose: 25.0 mg/kg/injection, schedule: Q01DX009 (ip), vehicle: saline); 144 % of control [survivor count not shown] (dose: 50.0 mg/kg/injection, schedule: Q01DX009 (ip), vehicle: saline); 102 % of control [survivor count not shown] (dose: 100.0 mg/kg/injection, schedule: Q01DX009 (ip), vehicle: saline).
Consider `CC(c1ccccc1)N(CCCl)P(=O)(Cl)Cl` (stereo not given), for which the T/C by setting is: (dose: 15.63 mg/kg/injection, schedule: Q01DX001 (ip), vehicle: distilled water + Tween-80) 103 % of control [survivor count not shown]; (dose: 31.25 mg/kg/injection, schedule: Q01DX001 (ip), vehicle: distilled water + Tween-80) 96 % of control [survivor count not shown]; under setting [5], 102 % of control [survivor count not shown]; under setting [6], 92 % of control [survivor count not shown]; (dose: 250.0 mg/kg/injection, schedule: Q01DX001 (ip), vehicle: distilled water + Tween-80) 96 % of control [survivor count not shown].
Take `CN1CC(C(C)(C)C)COP1(=O)N(CCCl)CCCl` (stereo not given): the T/C is, setting by setting: under setting [5], 107 % of control; under setting [6], 94 % of control.
As for `COC1=CC(=O)C(N(CCCl)CCCl)=CC1=O`, the T/C by setting is: (dose: 1.56 mg/kg/injection, schedule: Q01DX009 (ip), vehicle: Klucel (hydroxypropylcellulose) (HPC)) 111 % of control [survivor count not shown]; (dose: 3.12 mg/kg/injection, schedule: Q01DX009 (ip), vehicle: Klucel (hydroxypropylcellulose) (HPC)) 120 % of control [survivor count not shown]; under setting [1], 97 [survivor count not shown] and 108 % of control [survivor count not shown].
As for `O=P(Cl)(Cl)N1CCCCCC1`, the T/C was 102 % of control [survivor count not shown] (dose: 100.0 mg/kg/injection, schedule: Q01DX001 (ip), vehicle: saline); 106 % of control [survivor count not shown] under setting [4]; 93 % of control [survivor count not shown] (dose: 200.0 mg/kg/injection, schedule: Q01DX001 (ip), vehicle: saline); 110 % of control [survivor count not shown] (dose: 200.0 mg/kg/injection, schedule: Q04DX003 (ip), vehicle: saline with Tween-80); 90 % of control [survivor count not shown] (dose: 400.0 mg/kg/injection, schedule: Q01DX001 (ip), vehicle: saline).
Consider `CC1CCC(N(CCCl)CCCl)CC1` (stereo not given), for which the T/C was 101 % of control [survivor count not shown] (dose: 1.3 mg/kg/injection, schedule: Q01DX001 (ip), vehicle: saline); 106 % of control [survivor count not shown] (dose: 2.0 mg/kg/injection, schedule: Q01DX001 (ip), vehicle: saline); 105 % of control [survivor count not shown] (dose: 3.0 mg/kg/injection, schedule: Q01DX001 (ip), vehicle: saline); 110 % of control [survivor count not shown] (dose: 4.4 mg/kg/injection, schedule: Q01DX001 (ip), vehicle: saline); 116 % of control [survivor count not shown] (dose: 6.7 mg/kg/injection, schedule: Q01DX001 (ip), vehicle: saline); 115 % of control [survivor count not shown] (dose: 10.0 mg/kg/injection, schedule: Q01DX001 (ip), vehicle: saline). Besides, for the setting “dose: 15.0 mg/kg/injection, schedule: Q01DX001 (ip), vehicle: saline”, the T/C is 96 % of control [survivor count not shown].
